These are yes or no findings as the source states them, for the method shown. For some assays here: A result given as binding can be weak or reduced; the word gives no strength. Where a sequence is shown, tags or fusion partners need not be part of it.
Columns and labels:
[1] = target: T1, aggregated glucose-6-phosphate dehydrogenase from Leuconostoc mesenteroides (Leuconostoc mesenteroides) (UniProt P11411); experiment: retention with aggregates on a 0.1-µm filter, SDS-PAGE; aggregated G6PDH (16 µM diluted 10-fold) with 1.5 µM ClpB and 6 mM AMPPNP in refolding buffer 1, 30°C, 20 min; filter-retained fraction on SDS-PAGE with Coomassie stain; both purified
T1 sequence: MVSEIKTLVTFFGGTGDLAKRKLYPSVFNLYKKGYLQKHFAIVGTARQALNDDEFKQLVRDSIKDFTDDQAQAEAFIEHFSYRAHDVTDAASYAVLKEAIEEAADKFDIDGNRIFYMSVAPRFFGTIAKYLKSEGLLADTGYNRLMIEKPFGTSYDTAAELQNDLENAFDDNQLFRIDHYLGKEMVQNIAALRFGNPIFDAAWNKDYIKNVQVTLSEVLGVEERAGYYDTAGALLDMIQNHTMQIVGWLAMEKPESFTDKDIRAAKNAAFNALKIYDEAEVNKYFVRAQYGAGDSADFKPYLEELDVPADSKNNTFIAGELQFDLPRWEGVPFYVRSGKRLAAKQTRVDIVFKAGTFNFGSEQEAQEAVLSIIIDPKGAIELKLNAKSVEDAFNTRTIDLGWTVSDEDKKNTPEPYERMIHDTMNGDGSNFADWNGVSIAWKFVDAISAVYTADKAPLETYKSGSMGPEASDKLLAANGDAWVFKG

[2] = target: T1, aggregated glucose-6-phosphate dehydrogenase from Leuconostoc mesenteroides (Leuconostoc mesenteroides); experiment: retention with aggregates on a 0.1-µm filter, SDS-PAGE; aggregated G6PDH (16 µM diluted 10-fold) with 1.5 µM ClpB and 6 mM ATP in refolding buffer 1, 30°C, 20 min; filter-retained fraction on SDS-PAGE with Coomassie stain; both purified

For “ClpB from Ehrlichia chaffeensis (E. chaffeensis)”, the binding [1] was “no binding (only with 6 mM AMPPNP)” and the binding [2] was “binds”.

Source: paper PMC3646808, “Aggregate-Reactivation Activity of the Molecular Chaperone ClpB from Ehrlichia chaffeensis” (PLoS ONE, 2013)
